Results are given in words; binding and its absence hold for the method and conditions named. Binding seen in cells or lysates may run through a third protein. Some results given as binding are weak or reduced against the parent protein; the word gives no strength. Sequences can lack the tags named with a protein. Each block holds one molecule with its values, some of them ahead of it.
Columns and labels:
[1] = target: T1, LI-cadherin C-terminally tagged with cyan (LI-CFP) or yellow (LI-YFP) fluorescent protein (UniProt Q9R100); assay: FRET or BRET; acceptor (YFP) photobleaching FRET, CFP donor unquenching; living cotransfected HEK293 cells, cell-cell contact sites; 37 °C; 10 mM HEPES pH 7.4, 128 mM NaCl, 6 mM KCl, 1 mM MgCl2, 2 mM CaCl2; only cells with acceptor-to-donor ratio above 1.5
T1 sequence: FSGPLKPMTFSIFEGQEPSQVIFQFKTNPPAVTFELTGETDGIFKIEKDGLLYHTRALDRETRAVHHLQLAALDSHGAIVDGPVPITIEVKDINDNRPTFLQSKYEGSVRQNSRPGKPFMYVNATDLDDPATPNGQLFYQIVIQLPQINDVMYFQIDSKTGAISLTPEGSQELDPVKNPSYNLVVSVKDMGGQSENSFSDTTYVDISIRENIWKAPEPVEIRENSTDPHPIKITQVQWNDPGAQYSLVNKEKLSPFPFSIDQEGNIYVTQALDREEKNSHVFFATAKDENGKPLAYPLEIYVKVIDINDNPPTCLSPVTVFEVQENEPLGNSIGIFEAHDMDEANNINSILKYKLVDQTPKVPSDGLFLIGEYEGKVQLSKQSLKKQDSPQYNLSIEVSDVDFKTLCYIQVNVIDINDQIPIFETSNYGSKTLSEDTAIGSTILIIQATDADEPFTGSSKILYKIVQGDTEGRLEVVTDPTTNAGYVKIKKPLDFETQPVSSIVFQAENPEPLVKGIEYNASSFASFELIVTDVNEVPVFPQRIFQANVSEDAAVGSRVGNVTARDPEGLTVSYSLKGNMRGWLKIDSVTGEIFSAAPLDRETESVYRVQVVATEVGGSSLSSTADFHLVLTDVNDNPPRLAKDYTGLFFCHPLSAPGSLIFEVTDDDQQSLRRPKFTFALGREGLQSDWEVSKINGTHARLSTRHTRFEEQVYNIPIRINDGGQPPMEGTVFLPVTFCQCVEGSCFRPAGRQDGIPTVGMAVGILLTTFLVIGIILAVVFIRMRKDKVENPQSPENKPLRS

[2] = target: T1, LI-cadherin C-terminally tagged with cyan (LI-CFP) or yellow (LI-YFP) fluorescent protein; assay: FRET or BRET; acceptor photobleaching FRET of LI-CFP/LI-YFP in HEK293 cells after Ca2+ removal (Ca2+-free buffer, 2 mM EGTA); former cell-cell contacts and membrane regions not engaged in cell contacts
[3] = target: T1, LI-cadherin C-terminally tagged with cyan (LI-CFP) or yellow (LI-YFP) fluorescent protein; assay: FRET or BRET; FRET competition: twofold excess of untagged LI-cadherin coexpressed with LI-CFP and LI-YFP in HEK293 cells; acceptor photobleaching

binding [1]: no binding
Molecule: epidermal growth factor receptor-CFP fusion protein (from UniProt P00533 25-1210)

binding [2]: binds
binding [3]: binds
B1: untagged LI-cadherin (natural protein, UniProt Q9R100 26-827, looked up)
chain: T1 sequence
notes: LI-cadherin (cadherin-17), untagged wild type; The expression construct of the untagged protein is not described in the methods; also called LIwt; wild-type LI; source: HEK293, transfected, in living cells (twofold excess, coexpressed with LI-CFP and LI-YFP)
